Test results from publication PMC12040169 (PLOS Biology, 2025).
The list shows a part of the results.

What follows are compounds tested on T1, CTL2-GFP (C. trachomatis L2/434/Bu, GFP-expressing). Conditions: bulk GFP, single well; 28.5 h, 10 µM; inhibitor.
T1 construct: L2/434/Bu, GFP-expressing
Parameters: species or system HeLa; Intracellular C. trachomatis growth in HeLa cells, bulk GFP fluorescence relative to DMSO

SMILES | % of control remaining
Cc1ccc(CN(CCCn2ccnc2)Cc2ccsc2)o1 [CBK283253] | 106.906%
Cc1cn(C2CC(O)C(C3N(c4ccccc4)CCN3c3ccccc3)O2)c(=O)[nH]c1=O (stereo not shown) [CBK201232] | 102.462%
Cc1cc(N2CCOCC2)c2c(N)c(Br)cc(C)c2n1 [CBK066880] | 108.512%
CCN(CC)C(=O)CN1CCC(c2ccc(OC)cc2)CC1 [CBK283559] | 126.874%
Cc1cccnc1NC(=O)c1c(O)c2ccccc2n(C)c1=O [CBK261431] | 115.78%
O=C(NCCCN1CCOCC1)c1cc2cc([N+](=O)[O-])ccc2oc1=O [CBK263441] | 132.241%
O=S(=O)(Nc1ccc(C(O)(C(F)(F)F)C(F)(F)F)cc1)c1csc2ccccc12 [CBK062098] | 118.914%
CS(=O)(=O)N1CC2(CCNCC2)c2ccccc21 [CBK005171] | 112.105%
Cc1ccc(S(N)(=O)=O)cc1NC(=O)c1ccc[nH]1 [CBK050200] | 101.555%
Cc1ccc(S(=O)(=O)N2CCC(C(=O)NC(c3ccccc3C)c3ncccc3C)CC2)cc1 (stereo not shown) [CBK060249] | 123.156%
CCCC/C=C/c1nccnc1NCCc1ccncc1 [CBK037370] | 135.775%
COc1ccc(C(=O)n2nc(SC)nc2N)cc1 [CBK006853] | 143.107%
O=C(NCCOc1ccccc1Cl)NC(=O)C1CCN(CCOc2ccc(Br)cc2)CC1 [CBK034897] | 106.563%
CC(NC(=O)N(Cc1c[nH]c(-c2ccccc2)n1)CC(C)(C)CN)c1cccc2ccccc12 (stereo not shown) [CBK026801C] | 53.6869%
COc1cc2c(c(OC)c1OC)CC(=O)NC21CCN(C(=O)CC(C)CC(=O)O)CC1 (stereo not shown) [CBK047265] | 109.155%
CCN(CC)C(=O)Cn1nc(C)n2c(cc3occc32)c1=O [CBK283620] | 109.172%
O=C(Nc1ccc(OCc2ccccc2F)cc1)c1ccc(-n2cnnc2)cc1 [CBK285816] | 144.388%
COCCn1c(-c2ccc(CN3CCCC3)cc2)cc2onc(C)c2c1=O [CBK050385C] | 75.09%
Cc1cccc(C(=O)NC(=S)Nc2cccc(C(=O)O)c2)c1 [CBK264987] | 100.102%
Cc1cc(OCC(=O)Nc2nn(Cc3ccccc3Cl)cc2Cl)ccc1[N+](=O)[O-] [CBK268113] | 120.636%

Molecules shown so far that have a halogen, in the order listed:
SMILES | % of control remaining
Cc1cc(N2CCOCC2)c2c(N)c(Br)cc(C)c2n1 [CBK066880] | 108.512%
O=S(=O)(Nc1ccc(C(O)(C(F)(F)F)C(F)(F)F)cc1)c1csc2ccccc12 [CBK062098] | 118.914%
O=C(NCCOc1ccccc1Cl)NC(=O)C1CCN(CCOc2ccc(Br)cc2)CC1 [CBK034897] | 106.563%
O=C(Nc1ccc(OCc2ccccc2F)cc1)c1ccc(-n2cnnc2)cc1 [CBK285816] | 144.388%
Cc1cc(OCC(=O)Nc2nn(Cc3ccccc3Cl)cc2Cl)ccc1[N+](=O)[O-] [CBK268113] | 120.636%

Additional structures follow.

SMILES | % of control remaining
O=C(Nc1ccc(I)cc1C(=O)N1CCCCC1CCO)c1cccc2ccccc12 (stereo not shown) [CBK266212] | 129.959%
CCN(CC)C(=O)c1[nH]c2ccccc2c1NS(=O)(=O)c1ccc(F)cc1 [CBK050105] | 61.648%
CCn1cc(-c2cncn2C(CCN(C)C)c2ccccc2)cn1 (stereo not shown) [CBK281741] | 142.855%
Cc1ccccc1NS(=O)(=O)c1cc(OCC(N)=O)c(C)cc1Cl [CBK266443] | 151.759%
CCc1nc2ccc(C(=O)Nc3ccc(OC)c(OC)c3)cn2c1N(CC)C(=O)NCCc1ccccc1 [CBK147035] | 113.835%
O=C(CSc1nnc(-c2ccncc2)o1)Nc1ccccc1 [CBK287586] | 127.577%
COc1ccc(C)cc1S(=O)(=O)Nc1ccc(O[C@@H]2CCNC2)c2ccccc12 [CBK051622C] | 78.6645%
O=C1CC(C(=O)c2ccccc2)NC(N2CCOCC2)=N1 (stereo not shown) [CBK267352] | 121.611%
CNC(=O)C1CCCN1C(=O)c1nnn(Cc2ccc(F)cc2F)c1C (stereo not shown) [CBK306496] | 142.904%
C(CSC1=NCCN1)CSC1=NCCN1 [CBK278217B] | 106.923%
Cc1nnc(SCc2ccc(CSc3nnc(C)n3N)cc2)n1N [CBK265561] | 113.901%
CCN(CC)C(=O)CCCc1[nH]nc(O)c1Cc1c(Cl)cccc1Cl [CBK081524] | 129.383%
Cc1nn(C(C)CC(=O)O)c(C)c1Br (stereo not shown) [CBK269138] | 129.254%
CCC(CC)C(=O)N(C)c1c(C)nc2ccc(C(=O)N(C)CCN(C)C)cn12 [CBK146491] | 89.7146%
O=C(CC1CCCC1)N1CCCC(c2nnc(-c3cccs3)o2)C1 (stereo not shown) [CBK284631] | 145.073%
O=C(Nc1ccc([C@@H](O)[C@H]2COCC(=O)N2Cc2ccccn2)cc1)c1cccs1 [CBK289700] | 119.091%
CCCCC(CC)C(=O)N1CCN(c2ccc(OC)cc2)CC1 (stereo not shown) [CBK091414] | 112.726%
Cn1ccc(C2CCCCCN2S(=O)(=O)c2ccc3[nH]c(=O)[nH]c(=O)c3c2)n1 (stereo not shown) [CBK286407] | 119.069%
N#Cc1ccc(Cn2ccnc(N3CCC(Sc4ccccc4)CC3)c2=O)cc1 [CBK153653] | 86.7735%
COC(=O)COc1ccc(NC(=O)c2ccc([N+](=O)[O-])c(C)c2)cc1 [CBK268338] | 147.289%
